Binding data for two substances are collected here from paper PMC6952817.

Sequences of proteins named here, by UniProt entry; tags and fusion partners are left off. A change or cut given only in a name is not applied to a line headed by its entry.
UniProt P06213: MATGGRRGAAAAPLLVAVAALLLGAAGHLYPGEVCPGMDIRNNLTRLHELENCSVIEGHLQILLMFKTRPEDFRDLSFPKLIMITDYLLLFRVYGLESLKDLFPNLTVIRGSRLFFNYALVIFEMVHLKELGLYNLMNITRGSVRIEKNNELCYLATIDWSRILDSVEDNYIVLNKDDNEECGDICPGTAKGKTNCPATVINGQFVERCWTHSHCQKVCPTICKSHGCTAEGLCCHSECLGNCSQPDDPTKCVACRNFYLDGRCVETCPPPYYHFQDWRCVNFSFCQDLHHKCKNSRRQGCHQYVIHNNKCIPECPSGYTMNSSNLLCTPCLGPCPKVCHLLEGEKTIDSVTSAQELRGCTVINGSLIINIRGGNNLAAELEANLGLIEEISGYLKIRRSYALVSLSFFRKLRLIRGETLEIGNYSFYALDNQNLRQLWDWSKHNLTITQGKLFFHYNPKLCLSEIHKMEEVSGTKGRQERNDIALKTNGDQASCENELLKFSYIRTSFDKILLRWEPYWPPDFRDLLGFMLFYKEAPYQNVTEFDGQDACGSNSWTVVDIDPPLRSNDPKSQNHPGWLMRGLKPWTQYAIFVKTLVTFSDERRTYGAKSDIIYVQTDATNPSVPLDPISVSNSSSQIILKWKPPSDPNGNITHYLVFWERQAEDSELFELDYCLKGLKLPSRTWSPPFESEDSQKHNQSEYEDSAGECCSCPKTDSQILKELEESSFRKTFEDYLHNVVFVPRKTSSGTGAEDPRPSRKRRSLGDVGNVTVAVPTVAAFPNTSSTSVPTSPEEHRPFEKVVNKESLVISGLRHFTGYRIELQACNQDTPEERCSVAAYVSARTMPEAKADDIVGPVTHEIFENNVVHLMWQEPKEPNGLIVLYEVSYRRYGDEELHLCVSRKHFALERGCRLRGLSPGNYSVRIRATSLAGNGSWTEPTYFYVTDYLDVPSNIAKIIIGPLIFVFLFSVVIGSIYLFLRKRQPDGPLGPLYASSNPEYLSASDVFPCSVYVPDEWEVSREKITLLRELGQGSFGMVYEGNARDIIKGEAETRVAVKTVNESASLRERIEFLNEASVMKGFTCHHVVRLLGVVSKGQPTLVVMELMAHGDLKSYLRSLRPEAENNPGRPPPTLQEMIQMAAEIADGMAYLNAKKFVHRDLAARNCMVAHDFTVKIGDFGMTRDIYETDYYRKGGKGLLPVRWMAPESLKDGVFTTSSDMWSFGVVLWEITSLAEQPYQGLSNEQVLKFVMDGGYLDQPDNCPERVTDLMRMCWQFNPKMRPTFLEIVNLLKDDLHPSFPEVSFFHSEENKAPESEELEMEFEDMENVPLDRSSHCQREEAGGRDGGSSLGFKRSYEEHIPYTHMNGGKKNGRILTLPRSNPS
UniProt P08069: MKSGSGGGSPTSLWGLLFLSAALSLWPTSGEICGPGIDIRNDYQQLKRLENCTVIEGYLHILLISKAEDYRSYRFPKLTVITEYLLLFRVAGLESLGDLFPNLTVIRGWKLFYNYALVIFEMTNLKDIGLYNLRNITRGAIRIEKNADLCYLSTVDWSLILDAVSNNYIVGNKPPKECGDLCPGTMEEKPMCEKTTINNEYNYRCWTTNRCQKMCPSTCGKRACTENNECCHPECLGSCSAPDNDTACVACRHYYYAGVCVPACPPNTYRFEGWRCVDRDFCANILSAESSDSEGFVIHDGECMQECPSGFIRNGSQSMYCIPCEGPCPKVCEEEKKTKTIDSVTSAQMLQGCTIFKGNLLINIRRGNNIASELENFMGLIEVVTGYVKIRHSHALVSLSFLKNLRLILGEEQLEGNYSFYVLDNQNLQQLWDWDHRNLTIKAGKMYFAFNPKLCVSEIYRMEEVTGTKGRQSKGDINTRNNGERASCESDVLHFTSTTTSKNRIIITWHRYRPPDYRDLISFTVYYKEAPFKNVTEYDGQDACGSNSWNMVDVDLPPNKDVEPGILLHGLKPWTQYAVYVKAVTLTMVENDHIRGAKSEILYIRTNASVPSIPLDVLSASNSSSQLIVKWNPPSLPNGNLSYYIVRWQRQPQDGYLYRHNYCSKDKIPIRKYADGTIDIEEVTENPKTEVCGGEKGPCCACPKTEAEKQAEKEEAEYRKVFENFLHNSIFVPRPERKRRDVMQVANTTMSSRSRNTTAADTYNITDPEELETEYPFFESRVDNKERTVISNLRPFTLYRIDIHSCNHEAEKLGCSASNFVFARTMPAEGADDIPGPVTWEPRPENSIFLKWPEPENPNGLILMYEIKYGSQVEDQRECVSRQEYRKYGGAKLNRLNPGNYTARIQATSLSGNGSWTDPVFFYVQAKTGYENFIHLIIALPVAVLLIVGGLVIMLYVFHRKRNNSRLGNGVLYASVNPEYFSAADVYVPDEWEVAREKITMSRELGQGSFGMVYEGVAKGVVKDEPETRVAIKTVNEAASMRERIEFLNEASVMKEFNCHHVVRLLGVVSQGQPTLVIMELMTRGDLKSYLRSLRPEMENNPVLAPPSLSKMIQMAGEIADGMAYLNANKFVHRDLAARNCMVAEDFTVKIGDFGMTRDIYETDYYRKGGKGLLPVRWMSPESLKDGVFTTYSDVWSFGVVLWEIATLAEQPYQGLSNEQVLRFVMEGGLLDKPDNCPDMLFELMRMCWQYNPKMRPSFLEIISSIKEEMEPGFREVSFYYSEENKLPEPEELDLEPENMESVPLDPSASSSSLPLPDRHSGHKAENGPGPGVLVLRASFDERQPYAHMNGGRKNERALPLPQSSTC
UniProt P28482: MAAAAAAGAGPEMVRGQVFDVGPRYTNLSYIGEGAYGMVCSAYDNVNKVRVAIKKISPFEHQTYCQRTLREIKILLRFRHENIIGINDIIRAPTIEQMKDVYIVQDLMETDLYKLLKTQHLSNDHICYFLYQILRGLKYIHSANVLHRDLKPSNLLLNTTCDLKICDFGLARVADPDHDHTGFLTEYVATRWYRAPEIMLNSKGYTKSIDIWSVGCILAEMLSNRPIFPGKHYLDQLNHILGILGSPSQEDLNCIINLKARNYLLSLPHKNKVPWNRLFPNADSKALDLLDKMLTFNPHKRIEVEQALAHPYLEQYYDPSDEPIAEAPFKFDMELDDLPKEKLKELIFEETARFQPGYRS
UniProt P27361: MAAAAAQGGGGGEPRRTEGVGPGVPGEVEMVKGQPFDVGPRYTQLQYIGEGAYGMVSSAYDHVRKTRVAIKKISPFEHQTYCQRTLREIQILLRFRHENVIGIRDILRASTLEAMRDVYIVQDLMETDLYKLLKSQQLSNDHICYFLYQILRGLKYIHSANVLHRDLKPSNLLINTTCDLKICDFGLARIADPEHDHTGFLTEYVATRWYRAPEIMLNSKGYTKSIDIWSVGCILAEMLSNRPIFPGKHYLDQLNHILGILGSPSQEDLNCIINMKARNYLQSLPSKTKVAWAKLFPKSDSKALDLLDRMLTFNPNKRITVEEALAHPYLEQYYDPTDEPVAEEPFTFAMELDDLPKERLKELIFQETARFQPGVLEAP

For assay [1], the target named is insulin receptor (INSR) (human (endogenous in MCF7)) (UniProt P06213). The experiment in a line: co-IP; total lysates, cytoplasmic and nuclear extracts of MCF7 IGF1R-KD cells (IP anti-INSR beta-subunit) and INSR-KD cells (IP anti-IGF1R beta-subunit); 1% Triton X-100, 150 mM NaCl, 20 mM Tris pH 7.5, overnight at 4 C, protein A/G-agarose; blotted with anti-ERK1/2 or anti-AKT; IgG as control.

Assay [2] has as its target insulin-like growth factor-1 receptor (IGF1R) (human (endogenous in MCF7)) (UniProt P08069). The assay is described as above.

No constants are given. Whether binding was seen depends on the method and setting. In cells and extracts the contact can be indirect. Some binding calls cover weakened binding; strength is not graded here.

Consider “extracellular signal-regulated kinase 2 (ERK2) (from UniProt P28482 1-360) (enzyme)”, for which the binding result in assay [1] and in assay [2] was “binds” in each case.

With “extracellular signal-regulated kinase 1 (ERK1) (from UniProt P27361 1-379) (enzyme)”, the binding entry in assay [1] and in assay [2] was “binds” throughout.
